# From the supplement of paper PMC6411743
# By UniProt entry, the sequences of proteins in these tests, tags left out. Where a name states a change or a piece, a line headed by the entry shows the natural chain unless it says otherwise.
# UniProt Q8WWC4: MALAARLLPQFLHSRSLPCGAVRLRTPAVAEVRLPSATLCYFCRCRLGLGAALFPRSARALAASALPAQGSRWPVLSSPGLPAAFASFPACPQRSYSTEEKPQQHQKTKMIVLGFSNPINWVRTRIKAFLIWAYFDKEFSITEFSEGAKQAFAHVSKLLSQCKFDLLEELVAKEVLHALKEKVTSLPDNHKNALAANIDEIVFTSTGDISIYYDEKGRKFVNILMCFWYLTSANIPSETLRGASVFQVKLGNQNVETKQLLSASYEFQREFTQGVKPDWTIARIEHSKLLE
# UniProt Q8TDW0: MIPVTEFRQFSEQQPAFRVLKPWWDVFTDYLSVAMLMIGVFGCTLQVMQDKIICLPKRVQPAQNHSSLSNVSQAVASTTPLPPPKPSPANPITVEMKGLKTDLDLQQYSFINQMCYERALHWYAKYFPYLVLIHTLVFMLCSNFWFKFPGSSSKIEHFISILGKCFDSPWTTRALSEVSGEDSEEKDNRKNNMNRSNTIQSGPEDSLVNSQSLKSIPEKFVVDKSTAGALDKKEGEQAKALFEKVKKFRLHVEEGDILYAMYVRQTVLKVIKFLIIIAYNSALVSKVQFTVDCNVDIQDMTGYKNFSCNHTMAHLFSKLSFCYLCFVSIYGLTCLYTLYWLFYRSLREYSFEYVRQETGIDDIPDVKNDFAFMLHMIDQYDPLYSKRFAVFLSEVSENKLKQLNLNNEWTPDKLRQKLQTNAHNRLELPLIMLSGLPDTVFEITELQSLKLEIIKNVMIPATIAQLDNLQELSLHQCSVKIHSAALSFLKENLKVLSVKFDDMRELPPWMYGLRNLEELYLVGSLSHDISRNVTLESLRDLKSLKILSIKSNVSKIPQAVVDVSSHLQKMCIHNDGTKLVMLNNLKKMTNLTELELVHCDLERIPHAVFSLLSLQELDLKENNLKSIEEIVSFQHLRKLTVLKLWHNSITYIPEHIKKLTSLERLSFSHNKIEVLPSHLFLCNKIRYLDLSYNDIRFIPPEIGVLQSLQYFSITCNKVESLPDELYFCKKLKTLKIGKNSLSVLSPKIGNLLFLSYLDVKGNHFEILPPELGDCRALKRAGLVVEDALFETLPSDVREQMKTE
# UniProt Q92738: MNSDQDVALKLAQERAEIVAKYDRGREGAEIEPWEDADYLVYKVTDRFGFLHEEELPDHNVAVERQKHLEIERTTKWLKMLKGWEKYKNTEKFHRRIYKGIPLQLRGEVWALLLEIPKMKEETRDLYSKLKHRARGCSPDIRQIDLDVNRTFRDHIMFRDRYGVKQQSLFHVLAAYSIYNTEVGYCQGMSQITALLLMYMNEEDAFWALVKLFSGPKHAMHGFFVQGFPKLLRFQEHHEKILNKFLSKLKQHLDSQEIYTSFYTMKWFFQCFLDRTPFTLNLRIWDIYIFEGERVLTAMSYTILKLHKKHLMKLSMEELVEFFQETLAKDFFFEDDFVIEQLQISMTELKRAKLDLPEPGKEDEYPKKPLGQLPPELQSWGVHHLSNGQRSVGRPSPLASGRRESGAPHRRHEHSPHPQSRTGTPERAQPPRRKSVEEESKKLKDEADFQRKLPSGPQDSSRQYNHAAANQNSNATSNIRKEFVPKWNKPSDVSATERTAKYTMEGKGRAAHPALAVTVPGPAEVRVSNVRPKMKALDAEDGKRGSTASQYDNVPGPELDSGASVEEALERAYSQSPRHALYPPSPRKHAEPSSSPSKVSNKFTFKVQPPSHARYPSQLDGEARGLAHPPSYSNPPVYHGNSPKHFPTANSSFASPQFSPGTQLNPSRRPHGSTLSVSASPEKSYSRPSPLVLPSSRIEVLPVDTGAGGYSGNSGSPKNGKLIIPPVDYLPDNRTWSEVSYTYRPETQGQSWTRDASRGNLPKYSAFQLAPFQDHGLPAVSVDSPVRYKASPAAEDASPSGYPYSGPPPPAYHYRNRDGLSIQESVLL
# UniProt Q92610: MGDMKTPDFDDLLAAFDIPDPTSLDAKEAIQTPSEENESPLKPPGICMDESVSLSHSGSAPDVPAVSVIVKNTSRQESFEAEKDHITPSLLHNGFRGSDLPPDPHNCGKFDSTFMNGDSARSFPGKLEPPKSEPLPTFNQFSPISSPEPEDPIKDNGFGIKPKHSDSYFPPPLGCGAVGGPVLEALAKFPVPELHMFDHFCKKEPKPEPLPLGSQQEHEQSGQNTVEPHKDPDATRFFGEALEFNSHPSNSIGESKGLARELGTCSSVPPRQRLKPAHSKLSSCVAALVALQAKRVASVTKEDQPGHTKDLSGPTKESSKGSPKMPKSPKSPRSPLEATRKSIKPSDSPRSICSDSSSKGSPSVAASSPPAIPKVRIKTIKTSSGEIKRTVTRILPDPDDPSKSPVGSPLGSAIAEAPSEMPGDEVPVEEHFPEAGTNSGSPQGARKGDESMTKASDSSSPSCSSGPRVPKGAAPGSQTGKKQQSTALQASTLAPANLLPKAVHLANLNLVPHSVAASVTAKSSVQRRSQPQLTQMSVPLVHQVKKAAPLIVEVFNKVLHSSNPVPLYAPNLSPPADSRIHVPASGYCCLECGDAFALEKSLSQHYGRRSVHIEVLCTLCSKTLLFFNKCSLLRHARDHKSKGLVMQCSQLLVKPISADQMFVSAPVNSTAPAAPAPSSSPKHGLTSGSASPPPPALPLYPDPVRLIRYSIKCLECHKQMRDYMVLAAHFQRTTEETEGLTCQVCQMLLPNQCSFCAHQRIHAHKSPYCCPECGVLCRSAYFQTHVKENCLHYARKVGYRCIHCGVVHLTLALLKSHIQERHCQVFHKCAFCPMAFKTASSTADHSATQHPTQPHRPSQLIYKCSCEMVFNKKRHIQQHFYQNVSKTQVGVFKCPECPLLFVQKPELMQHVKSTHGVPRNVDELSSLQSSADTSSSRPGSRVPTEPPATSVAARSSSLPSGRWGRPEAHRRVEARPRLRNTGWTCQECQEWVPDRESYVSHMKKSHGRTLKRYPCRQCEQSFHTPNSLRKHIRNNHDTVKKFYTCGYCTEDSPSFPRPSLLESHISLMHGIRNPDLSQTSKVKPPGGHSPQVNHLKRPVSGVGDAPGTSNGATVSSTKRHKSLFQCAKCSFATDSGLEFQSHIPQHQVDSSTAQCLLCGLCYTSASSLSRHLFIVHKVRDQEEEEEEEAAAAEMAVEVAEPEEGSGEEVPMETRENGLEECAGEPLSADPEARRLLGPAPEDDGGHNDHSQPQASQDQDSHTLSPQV
# UniProt Q8WW59: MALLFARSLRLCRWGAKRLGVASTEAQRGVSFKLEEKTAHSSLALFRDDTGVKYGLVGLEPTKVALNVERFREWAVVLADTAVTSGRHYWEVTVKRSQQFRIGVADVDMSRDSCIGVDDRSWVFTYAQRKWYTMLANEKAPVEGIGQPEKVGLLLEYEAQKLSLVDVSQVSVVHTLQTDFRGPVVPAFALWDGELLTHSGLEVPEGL
# UniProt Q92562: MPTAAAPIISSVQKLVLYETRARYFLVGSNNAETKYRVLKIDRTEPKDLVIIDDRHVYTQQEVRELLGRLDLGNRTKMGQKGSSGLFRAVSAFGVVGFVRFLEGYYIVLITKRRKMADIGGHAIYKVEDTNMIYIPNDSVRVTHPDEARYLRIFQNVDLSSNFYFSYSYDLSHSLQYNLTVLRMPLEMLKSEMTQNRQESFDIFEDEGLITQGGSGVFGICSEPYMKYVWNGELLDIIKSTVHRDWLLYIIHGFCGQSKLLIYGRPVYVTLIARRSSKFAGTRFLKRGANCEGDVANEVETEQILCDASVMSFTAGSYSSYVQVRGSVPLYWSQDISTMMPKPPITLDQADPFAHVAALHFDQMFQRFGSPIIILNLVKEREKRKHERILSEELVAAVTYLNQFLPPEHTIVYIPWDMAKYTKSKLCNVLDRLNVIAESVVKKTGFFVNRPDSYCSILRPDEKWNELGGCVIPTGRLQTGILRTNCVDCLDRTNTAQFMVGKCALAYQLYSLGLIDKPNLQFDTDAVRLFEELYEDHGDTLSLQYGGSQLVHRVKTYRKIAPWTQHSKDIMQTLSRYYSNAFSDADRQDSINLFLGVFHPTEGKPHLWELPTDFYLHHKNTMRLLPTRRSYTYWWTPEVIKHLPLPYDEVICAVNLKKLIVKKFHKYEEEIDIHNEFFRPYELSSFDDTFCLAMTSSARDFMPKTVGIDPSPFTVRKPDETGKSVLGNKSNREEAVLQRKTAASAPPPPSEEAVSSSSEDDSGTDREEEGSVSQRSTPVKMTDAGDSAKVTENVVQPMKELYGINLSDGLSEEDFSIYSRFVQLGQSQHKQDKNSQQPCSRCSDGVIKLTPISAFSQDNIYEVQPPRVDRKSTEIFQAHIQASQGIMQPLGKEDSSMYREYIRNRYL
# UniProt Q969N2: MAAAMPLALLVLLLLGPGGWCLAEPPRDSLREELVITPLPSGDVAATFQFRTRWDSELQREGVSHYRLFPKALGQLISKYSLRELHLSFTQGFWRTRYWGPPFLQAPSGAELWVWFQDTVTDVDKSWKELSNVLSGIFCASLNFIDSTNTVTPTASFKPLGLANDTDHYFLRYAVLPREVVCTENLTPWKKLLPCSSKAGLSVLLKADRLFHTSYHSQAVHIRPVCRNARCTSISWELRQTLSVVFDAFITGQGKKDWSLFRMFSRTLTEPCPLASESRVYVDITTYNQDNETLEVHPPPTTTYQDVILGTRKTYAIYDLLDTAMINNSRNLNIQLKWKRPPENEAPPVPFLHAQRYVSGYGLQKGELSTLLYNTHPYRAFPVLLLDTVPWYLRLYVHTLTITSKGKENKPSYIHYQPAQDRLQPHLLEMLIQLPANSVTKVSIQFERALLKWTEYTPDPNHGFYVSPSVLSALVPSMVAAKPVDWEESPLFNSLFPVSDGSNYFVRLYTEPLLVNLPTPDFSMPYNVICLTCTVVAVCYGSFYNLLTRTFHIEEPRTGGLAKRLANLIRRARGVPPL
# UniProt Q8TDQ7: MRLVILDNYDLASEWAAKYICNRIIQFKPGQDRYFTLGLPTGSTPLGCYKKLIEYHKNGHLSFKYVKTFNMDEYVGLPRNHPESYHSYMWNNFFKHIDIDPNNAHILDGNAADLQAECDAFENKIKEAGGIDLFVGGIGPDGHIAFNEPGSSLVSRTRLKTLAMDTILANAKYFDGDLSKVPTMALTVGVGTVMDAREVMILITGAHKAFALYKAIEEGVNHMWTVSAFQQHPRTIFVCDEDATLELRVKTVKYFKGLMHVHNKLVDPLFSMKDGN
# UniProt Q92688: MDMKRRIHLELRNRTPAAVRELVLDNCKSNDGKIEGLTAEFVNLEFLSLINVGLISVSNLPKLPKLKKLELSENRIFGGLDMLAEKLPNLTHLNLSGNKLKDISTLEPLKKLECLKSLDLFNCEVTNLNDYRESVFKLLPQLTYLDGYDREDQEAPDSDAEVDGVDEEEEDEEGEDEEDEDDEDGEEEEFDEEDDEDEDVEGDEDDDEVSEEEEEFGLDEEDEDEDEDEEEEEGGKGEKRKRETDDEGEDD
# UniProt Q969G3, whole entry: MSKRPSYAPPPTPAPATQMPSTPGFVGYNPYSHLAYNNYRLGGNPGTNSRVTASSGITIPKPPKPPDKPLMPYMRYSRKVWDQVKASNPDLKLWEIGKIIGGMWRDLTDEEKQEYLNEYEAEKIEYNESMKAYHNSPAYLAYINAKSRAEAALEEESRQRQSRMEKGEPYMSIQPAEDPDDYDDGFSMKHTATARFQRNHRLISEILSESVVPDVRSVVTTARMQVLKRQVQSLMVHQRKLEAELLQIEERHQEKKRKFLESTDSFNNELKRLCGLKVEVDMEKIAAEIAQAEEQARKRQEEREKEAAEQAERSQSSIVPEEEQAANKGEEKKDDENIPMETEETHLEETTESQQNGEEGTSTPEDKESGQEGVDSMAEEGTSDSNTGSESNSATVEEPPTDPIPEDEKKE
# UniProt Q8WXF1: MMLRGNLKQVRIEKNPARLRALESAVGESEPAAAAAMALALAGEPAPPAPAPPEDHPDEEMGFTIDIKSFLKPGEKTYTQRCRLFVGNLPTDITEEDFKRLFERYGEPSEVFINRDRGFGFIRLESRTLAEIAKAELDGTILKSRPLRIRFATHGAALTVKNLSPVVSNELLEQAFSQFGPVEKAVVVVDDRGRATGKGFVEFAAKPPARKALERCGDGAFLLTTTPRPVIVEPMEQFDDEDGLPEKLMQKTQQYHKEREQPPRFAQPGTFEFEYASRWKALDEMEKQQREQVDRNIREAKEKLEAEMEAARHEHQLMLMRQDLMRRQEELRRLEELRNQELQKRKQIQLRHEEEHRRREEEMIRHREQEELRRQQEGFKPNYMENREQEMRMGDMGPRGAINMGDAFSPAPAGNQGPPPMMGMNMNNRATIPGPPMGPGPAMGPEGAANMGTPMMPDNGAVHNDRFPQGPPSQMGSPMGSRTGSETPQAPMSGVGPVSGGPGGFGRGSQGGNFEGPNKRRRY
# ± gives the standard deviation of the averaged measurements. The list shows a part of the results, in another mix than the full data.
# Compound: Nc1ncnc2c1ncn2[C@@H]1O[C@H](COP(=O)(O)OP(=O)(O)OP(=O)(O)O)[C@@H](O)[C@H]1O [adenosine triphosphate]
# Test: NP40-soluble protein abundance relative to vehicle (solubility fold change) (ratio); higher = more soluble protein in presence of ATP
# In short: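 Jurkat crude lysate (Dounce-homogenised) was treated with eight concentrations from 0.1 to 10 mM for 10 min at room temperature, then 3 min at 37 °C. It was solubilised with 0.8% NP40 and benzonase (60 min, 4 °C) and ultracentrifuged, and the supernatant was TMT-labelled for LC-MS/MS. Intensities were vsn-normalised, and the value is the fold change against the NP40-processed vehicle per replicate, from three independent experiments.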
Target,NP40-soluble protein abundance (concentration: 1mM),NP40-soluble protein abundance (concentration: 2mM),NP40-soluble protein abundance (concentration: 4mM),NP40-soluble protein abundance (concentration: 6mM),NP40-soluble protein abundance (concentration: 8mM),NP40-soluble protein abundance (concentration: 10mM)
USP13 (UniProt Q92995),0.987 ± 0.071,0.979 ± 0.039,0.961 ± 0.047,0.949 ± 0.064,0.976 ± 0.049,0.97 ± 0.025
UniProt Q8WWC4,1.04 ± 0.15,1.02 ± 0.11,1 ± 0.08,0.946 ± 0.11,1.07 ± 0.11,1.01 ± 0.061
UniProt Q96AQ8,0.987 ± 0.0055,0.96 ± 0.021,0.979 ± 0.036,0.977 ± 0.019,0.994 ± 0.043,0.929 ± 0.11
PHIP (UniProt Q8WWQ0),1.12 ± 0.056,1.19 ± 0.043,1.16 ± 0.018,1.22 ± 0.12,1.14 ± 0.09,1.24 ± 0.063
UniProt Q93100 and related entries,1 ± 0.048,0.941 ± 0.039,0.939 ± 0.019,0.902 ± 0.089,0.957 ± 0.048,0.899 ± 0.084
SMCR8 (UniProt Q8TEV9),1 ± 0.019,0.959 ± 0.07,0.973 ± 0.041,0.977 ± 0.082,0.967 ± 0.037,0.971 ± 0.046
LRRC8C (UniProt Q8TDW0),1.03 ± 0.071,1.05 ± 0.07,1.07 ± 0.1,1.13 ± 0.13,1.16 ± 0.013,1.1 ± 0.086
UniProt Q92738 and related entries,1.04 ± 0.11,1.06 ± 0.025,1.05 ± 0.016,1.083 ± 0.006,1.08 ± 0.024,1.08 ± 0.061
UniProt Q96AC1 and related entries,1.04 ± 0.12,1.06 ± 0.09,1.07 ± 0.11,0.978 ± 0.087,1.02 ± 0.079,1.08 ± 0.13
ZNF592 (UniProt Q92610),1.02 ± 0.057,1.01 ± 0.086,1.07 ± 0.074,1.11 ± 0.18,1.06 ± 0.13,1.12 ± 0.15
DHX38 (UniProt Q92620),1.09 ± 0.03,1.11 ± 0.019,1.14 ± 0.018,1.19 ± 0.03,1.19 ± 0.029,1.17 ± 0.039
ZC3H15 (UniProt Q8WU90),0.965 ± 0.036,0.962 ± 0.013,0.955 ± 0.017,0.996 ± 0.013,0.959 ± 0.026,0.969 ± 0.033
UniProt Q92974 and related entries,1.02 ± 0.016,1.01 ± 0.036,1.02 ± 0.044,1.03 ± 0.066,1.06 ± 0.048,1.07 ± 0.064
PNPT1 (UniProt Q8TCS8),0.993 ± 0.031,0.974 ± 0.024,0.952 ± 0.02,0.936 ± 0.034,0.967 ± 0.014,0.966 ± 0.035
SPRYD4 (UniProt Q8WW59),0.995 ± 0.19,1.02 ± 0.12,1 ± 0.11,0.952 ± 0.15,0.982 ± 0.034,1 ± 0.065
TMEM131 (UniProt Q92545),1.06 ± 0.11,1.09 ± 0.091,1.08 ± 0.057,1.15 ± 0.21,1.01 ± 0.12,1.2 ± 0.082
FIG4 (UniProt Q92562),0.966 ± 0.012,0.951 ± 0.027,0.997 ± 0.11,0.838 ± 0.067,1.01 ± 0.08,0.988 ± 0.034
UniProt Q8TBN0 and related entries,0.893 ± 0.1,0.943 ± 0.052,1.06 ± 0.11,1.16 ± 0.12,0.917 ± 0.01,0.943 ± 0.061
PPIL4 (UniProt Q8WUA2),0.97 ± 0.064,0.968 ± 0.07,0.995 ± 0.049,1.03 ± 0.042,1.02 ± 0.031,1.05 ± 0.052
UniProt Q969N2 and related entries,0.915 ± 0.085,0.935 ± 0.076,0.931 ± 0.028,0.893 ± 0.07,0.917 ± 0.024,0.978 ± 0.054
GEMIN5 (UniProt Q8TEQ6),1.04 ± 0.1,1.01 ± 0.068,1.01 ± 0.046,0.93 ± 0.079,1.02 ± 0.018,1.02 ± 0.053
UniProt Q8TDQ7 and related entries,1.01 ± 0.093,1.02 ± 0.026,1.01 ± 0.062,0.92 ± 0.11,0.987 ± 0.086,0.999 ± 0.016
UniProt Q92688 and related entries,0.824 ± 0.085,0.806 ± 0.043,0.744 ± 0.059,0.774 ± 0.051,0.726 ± 0.021,0.697 ± 0.11
RTN4IP1 (UniProt Q8WWV3),1.03 ± 0.037,1.04 ± 0.047,0.997 ± 0.018,0.995 ± 0.025,1.03 ± 0.021,1.01 ± 0.063
PDCD6IP (UniProt Q8WUM4),0.97 ± 0.031,0.9619 ± 0.0094,0.921 ± 0.016,0.972 ± 0.029,0.924 ± 0.013,0.934 ± 0.028
UniProt Q969G3 and related entries,1.02 ± 0.098,1.01 ± 0.086,0.972 ± 0.1,1.05 ± 0.18,1.01 ± 0.1,0.963 ± 0.075
UniProt Q96B97 and related entries,0.96 ± 0.037,0.959 ± 0.033,0.948 ± 0.022,0.979 ± 0.041,0.936 ± 0.018,0.935 ± 0.011
PLEKHO2 (UniProt Q8TD55),0.949 ± 0.058,0.939 ± 0.062,0.923 ± 0.056,0.986 ± 0.068,0.927 ± 0.024,0.926 ± 0.06
UniProt Q8WXE1 and related entries,0.955 ± 0.12,1 ± 0.014,0.994 ± 0.052,1.01 ± 0.11,0.935 ± 0.044,0.968 ± 0.056
PSPC1 (UniProt Q8WXF1),1.01 ± 0.048,1.03 ± 0.05,1.01 ± 0.017,1.05 ± 0.013,1.043 ± 0.0083,1.03 ± 0.023

# Single values from the results shown:
# Value of ZNF592 (UniProt Q92610) under NP40-soluble protein abundance (concentration: 4mM): 1.07 ± 0.074
# Value of UniProt Q92738 and related entries under NP40-soluble protein abundance (concentration: 2mM): 1.06 ± 0.025
